{"source": "PubChem BioAssay AID1347076", "about": "(National Center for Advancing Translational Sciences (NCATS), 2019)", "note": "Out of some 400,000 compounds screened, about 13,000 (3.2%) were called active. Inconclusive results, whose numbers are uncertain, are shown with a selection of clear calls. Calls come from the whole dose curve; as a rule, active = well fitted cell-killing curve with a large enough effect; inconclusive = small, poorly fitted or top-dose-only effect, or effect the other way; inactive = flat fitted curve, though single readings scatter. Potencies beside an inconclusive call are fits to weak or partial responses and may not hold up. % is set by controls: 0 for no effect and ±100 for the full control effect; potency is the fitted concentration of half-maximal effect."}
{"assay": "qHTS assay for MDR1-selective chemotherapeutics: Primary screen using the drug-selected MDR subline cells KB-V1; note: nearly all actives have a fitted effect of over 60% in size", "conditions": "KB-V1 MDR cells viability, CellTiter-Glo, 72 h; activity change, negative = cytotoxicity: at 46.1 µM (top of the series)", "method_in_brief": "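Compound-treated KB-V1 multidrug-resistant cells, 72 h, 37 degrees C; viability by CellTiter-Glo. Fitted qHTS curves give the values.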"}
{"compound": "CCNC(=S)/N=C(\\N)Nc1nc(C)c2cc(C)ccc2n1", "Potency": "active: 9.2 µM"}
{"compound": "Cc1cccc(OCC(=O)Nc2cc(NC(=O)COc3cccc(C)c3)cc(C(=O)O)c2)c1", "Potency": "inconclusive: 32.6 µM [rising, single point]"}
{"compound": "CC(=O)N1CCN(C2=Nc3cccc4cccc2c34)CC1", "Potency": "inactive"}
{"compound": "CC(=O)C1CCC2C3CC=C4CC(SC(=N)N)CCC4(C)C3CCC12C", "note": "(stereo not drawn)", "Potency": "active: 23.1 µM"}
{"compound": "Cc1nnc(C)c2c(C)n(-c3ccc(Cl)c(N)c3)c(C)c12", "Potency": "inactive"}
{"compound": "CC(C)Oc1ccc(S(=O)(=O)N2CCOCC2)cc1NC(=O)c1cccc(S(=O)(=O)N2CCCC2)c1", "Potency": "active: 18.4 µM"}
{"compound": "Cc1cccc(-n2c(CNC(=O)c3cccc(F)c3)nnc2SCC(=O)Nc2ccccc2F)c1", "Potency": "inactive"}
{"compound": "COc1ccccc1CNC(=O)CN1C(=O)COc2ccc(S(=O)(=O)NC3CCCC3)cc21", "Potency": "inconclusive: 25.9 µM [rising, single point]"}
{"compound": "O=C(CNC(=O)c1cc2c(s1)CCC2)Nc1ccccc1Br", "Potency": "active: 18.4 µM"}
{"compound": "COc1cc(C(=O)OCC(=O)c2cc(C)n(C)c2C)cc(OC)c1OC", "Potency": "active: 5.17 µM"}
{"compound": "N#CC1=C(N)NC(SCC(=O)O)=C(C#N)C12CCCC2", "Potency": "inconclusive: 29.1 µM [rising, single point]"}
{"compound": "CCN(CC)CCCNC(=O)c1nn2c(C(F)(F)F)cc(-c3ccccc3)nc2c1Cl", "Potency": "inactive"}
{"compound": "COc1ccccc1N(C)S(=O)(=O)c1ccc(Cl)c(C(=O)OCc2c(C)noc2C)c1", "Potency": "inactive"}
{"compound": "O=C(CC1SC(N2CCCCC2)=NC1=O)Nc1cccc(C(=O)N2CCCC(C(F)(F)F)C2)c1", "note": "(stereo not drawn)", "Potency": "inactive"}
{"compound": "COc1ccc(-n2nc3cc(C)c(NC(=O)c4ccc(-c5ccc(Cl)cc5)o4)cc3n2)cc1", "Potency": "inconclusive: 16.4 µM [rising, single point]"}
{"compound": "CN(C)c1nc(NC(C)(C)C)nc(NC(C)(C)C)n1", "Potency": "inconclusive: 23.1 µM [cytotoxic, partial curve, poor fit]"}
{"compound": "COc1ccccc1CN1CC(C(=O)N(CCO)Cc2cccs2)CCC1=O", "note": "(stereo not drawn)", "Potency": "inactive"}
{"compound": "CC(c1ccco1)N(C(=O)c1ccccc1NS(=O)(=O)c1ccc(Cl)c([N+](=O)[O-])c1)c1ccccn1", "note": "(stereo not drawn)", "Potency": "inconclusive: 18.4 µM [cytotoxic, single point]"}
{"compound": "Cc1ccccc1Nc1nnc(SCC(=O)NC(=O)NCc2ccco2)s1", "Potency": "inconclusive: 29.1 µM [cytotoxic, single point]"}
{"compound": "Cc1nc(SCC(=O)NC(=O)NC2CCCCC2)nc(C)c1C", "Potency": "inconclusive: 14.6 µM [cytotoxic, partial curve, poor fit]"}
{"compound": "C=CCN1C(=O)C(Cc2ccc(F)cc2)S/C1=N/N=C/c1cccs1", "note": "(stereo not drawn)", "Potency": "inconclusive: 32.6 µM [cytotoxic, single point]"}
{"compound": "CC(CCc1ccccc1)NC(=O)CSc1ccccc1", "note": "(stereo not drawn)", "Potency": "inconclusive: 16.4 µM [cytotoxic, partial curve, poor fit]"}
{"compound": "CCC(=O)Nc1ccc(C(=O)Cn2ncc(Cl)c(Cl)c2=O)cc1", "Potency": "inconclusive: 23.1 µM [cytotoxic, single point]"}
{"compound": "CCn1c2ccccc2c2cc(NC(C)=O)ccc21", "activity change, negative = cytotoxicity": "inconclusive: 3.24%"}
{"compound": "Cc1ccc(NC(=O)CSc2nc3ccccc3c(=O)n2CCCC(=O)NCCCN2CCOCC2)cc1C", "Potency": "inactive"}
{"compound": "Cc1cccc(C)c1Nc1c(-c2ccccn2)nc2c(C)cccn12", "Potency": "inactive"}
{"compound": "CCn1c(SCC(=O)Nc2ccc(OC)c(OC)c2)nnc1-c1cnccn1", "Potency": "inactive"}
{"compound": "COc1ccc2c(c1)c(N=NC(N)=S)c(O)n2CC(=O)c1ccccc1", "Potency": "inconclusive: 0.0411 µM [rising, full curve]"}
{"compound": "COc1ccc(OCc2ccc(-c3nc(C#N)c(NC(C)c4ccccc4)o3)o2)cc1", "note": "(stereo not drawn)", "Potency": "inconclusive: 0.58 µM [rising, full curve]"}
{"compound": "O=C(Cn1cnc2c(NCc3ccccc3)ncnc21)NCc1ccccc1", "Potency": "active: 7.31 µM"}
{"compound": "O=S(=O)(Nc1cccc(-c2cn3cccnc3n2)c1)c1ccc(Cl)cc1", "Potency": "inconclusive: 11.6 µM [cytotoxic, partial curve]"}
{"compound": "O=C(CC(=O)c1c(F)cccc1Cl)c1ccccc1O", "Potency": "inconclusive: 23.1 µM [cytotoxic, single point]"}
{"compound": "COc1ccc(NC(=O)CSc2nccn2Cc2ccccc2)c(OC)c1", "Potency": "inconclusive: 8.2 µM [cytotoxic, partial curve, poor fit]"}
{"compound": "Nc1nc2c(C(=O)N3CCOCC3)nnn2c2ccccc12", "activity change, negative = cytotoxicity": "inconclusive: 30.7%"}
{"compound": "Cc1ccc(C(=O)Nc2ccccc2-c2ccccc2)o1", "Potency": "inconclusive: 18.4 µM [cytotoxic, partial curve]"}
{"compound": "CCOc1ccc(NC(=O)c2cccc(OC(=S)N3CCC(C)CC3)c2)cc1", "Potency": "active: 18.4 µM"}
{"compound": "Cn1c(CCNC(=O)c2ccco2)nc2cc(NC(=O)c3ccccc3Cl)ccc21", "Potency": "inactive"}
{"compound": "Cc1ccc(N(Cc2ccccc2)C(=O)c2cccc(S(=O)(=O)N3CCOCC3)c2)cc1", "Potency": "inconclusive: 4.61 µM [cytotoxic, full curve]"}
{"compound": "CC(OC(=O)c1ccc(CN2CCCC2=O)cc1)C(=O)Nc1ccc(Cl)cc1", "note": "(stereo not drawn)", "Potency": "inconclusive: 29.1 µM [cytotoxic, single point]"}
{"compound": "CCOc1ccc(-c2ccc(/C=C3/C(=N)N4C(C)=CSC4=NC3=O)o2)c([N+](=O)[O-])c1", "activity change, negative = cytotoxicity": "inconclusive: -57.2%"}
{"compound": "COc1ccc(-c2nc3ccccc3s2)cc1NC(=O)c1ccccc1F", "Potency": "inconclusive: 20.6 µM [cytotoxic, partial curve]"}
{"compound": "Cn1cc([C@]2(O)C(=O)Nc3c(F)cccc32)c2ccccc21", "Potency": "inactive"}
{"compound": "COc1cccc(N2CCN(Cc3cccnc3)CC2)c1", "Potency": "inactive"}
{"compound": "O=C(COc1ccc2ccccc2c1)Nc1ccc2c3c(cccc13)CC2", "Potency": "inactive"}
{"compound": "CC(Sc1ccccn1)C(=O)Nc1ccccc1", "note": "(stereo not drawn)", "Potency": "inconclusive: 29.1 µM [cytotoxic, single point]"}
{"compound": "C=CCN1N=C(/C=C/c2ccc(C)cc2)CCC1=O", "Potency": "inconclusive: 13 µM [cytotoxic, partial curve, poor fit]"}
{"compound": "Cc1csc(CN(C)C(=O)c2cn(Cc3cccc4ccccc34)nn2)n1", "Potency": "inconclusive: 14.6 µM [cytotoxic, partial curve]"}
{"compound": "Cc1cc(C)c2sc(NNC(=O)C3COc4ccccc4O3)nc2c1", "note": "(stereo not drawn)", "Potency": "inconclusive: 29.1 µM [cytotoxic, single point]"}
{"compound": "CCCc1ccc(O)c(N=Cc2cc(Br)cc(OCC)c2O)c1", "Potency": "inactive"}
{"compound": "CSc1nnc(-c2cc3c(-c4ccccc4)nn(C)c3s2)n1C", "Potency": "inconclusive: 29.1 µM [cytotoxic, single point]"}
{"compound": "O=C(c1cc2ccccc2oc1=O)N(Cc1ccc2c(c1)OCO2)Cc1ccco1", "Potency": "inconclusive: 20.6 µM [cytotoxic, single point]"}
{"compound": "O=C(Nc1ccc(OC(F)(F)F)cc1)N1CCc2nc(NCc3cccc(Oc4ccccc4)c3)ncc2C1", "Potency": "active: 13 µM"}
{"compound": "COc1ccc(-c2csc3ncnc(Nc4cccc(OC)c4)c23)cc1", "Potency": "inactive"}
{"compound": "Cc1ccc(/C=C/C(=O)N2CCN(c3cccc(C(F)(F)F)c3)CC2)cc1", "Potency": "inconclusive: 29.1 µM [cytotoxic, single point]"}
{"compound": "O=C(COc1coc(CN2CCN(c3ccccc3F)CC2)cc1=O)NC1CCCC1", "Potency": "inactive"}
{"compound": "CCOc1ccc2c(c1)/C(=C(\\C(Cl)=C(Cl)Cl)[N+](=O)[O-])N2", "Potency": "inactive"}
{"compound": "O=C(NCC(c1cccs1)N1CCOCC1)c1ccccc1NS(=O)(=O)c1ccc(Cl)c([N+](=O)[O-])c1", "note": "(stereo not drawn)", "Potency": "inconclusive: 25.9 µM [cytotoxic, single point]"}
{"compound": "Cc1ccc2c(c1)C(c1ccc(F)cc1)N(C(=O)c1ccc(S(=O)(=O)N3CCCCC3)cc1)CC(=O)N2", "note": "(stereo not drawn)", "Potency": "inconclusive: 0.0206 µM [cytotoxic, full curve]"}
{"compound": "O=C(Nc1cccc(S(=O)(=O)NC2=NCCC2)c1)c1ccc(=O)[nH]c1", "Potency": "inactive"}
{"compound": "Cc1cc(=O)oc2cc(NC(=O)c3cccc(Br)c3)ccc12", "Potency": "inconclusive: 11.6 µM [cytotoxic, partial curve]"}
{"compound": "O=C(C1CCCN(S(=O)(=O)c2ccccc2)C1)N1CCN(c2ccccc2)CC1", "note": "(stereo not drawn)", "Potency": "inconclusive: 8.2 µM [cytotoxic, partial curve, poor fit]"}
{"compound": "CCN(C(=O)CSc1ccc(S(=O)(=O)N2CCOCC2)cn1)c1ccccc1", "Potency": "inconclusive: 8.2 µM [cytotoxic, partial curve]"}
{"compound": "NC(CCc1ccccc1)c1csc(NC(=O)Nc2cccc(C(F)(F)F)c2)n1", "note": "(stereo not drawn)", "Potency": "inconclusive: 29.1 µM [cytotoxic, single point]"}
{"compound": "O=C(CSc1nc2ccccc2[nH]1)Nc1nc(-c2cccc(Br)c2)cs1", "Potency": "inconclusive: 0.58 µM [rising, full curve]"}
{"compound": "Cc1cccc(C)c1NC(=O)Cn1c(=O)n(CCC(=O)NCc2ccco2)c(=O)c2sccc21", "Potency": "inactive"}
{"compound": "CC1CCCC(NC(=O)NC(=O)COC(=O)C2=NN(c3ccccc3)C(=O)CC2)C1C", "note": "(stereo not drawn)", "Potency": "inactive"}
{"compound": "Cc1ccc(NC(=O)c2ccccc2O)cc1", "Potency": "inactive"}
{"compound": "Cc1cc(NC(=O)COc2ccc(C(C)(C)C)cc2)no1", "Potency": "inconclusive: 0.0116 µM [rising, full curve]"}
{"compound": "COc1cccc(-c2cccc(NC(=O)C3CCN(CCCn4cccn4)CC3)c2)c1", "Potency": "inactive"}
{"compound": "COc1ccccc1-c1nnc(NC(=O)C(C)C)s1", "Potency": "inactive"}
{"compound": "Cc1ccc2cccc(OCCCOc3ccccc3F)c2n1", "Potency": "inactive"}
{"compound": "COc1ccc(CCNCc2ccc(-c3ccccc3)cc2)cc1OC", "Potency": "inconclusive: 6.51 µM [cytotoxic, partial curve, poor fit]"}
{"compound": "COc1ccc(NC(=O)CNC(=O)N2CC(=O)Nc3ccccc32)cc1OC", "Potency": "inconclusive: 7.31 µM [rising, partial curve, poor fit]"}
